Results as given in PMC3979679.
Results are given in words; binding and its absence hold for the method and conditions named. For part of these data: In cells and extracts the contact can be indirect. Some results given as binding are weak or reduced against the parent protein; the word gives no strength. For part of these data: Where a sequence is shown, tags or fusion partners need not be part of it.

B1: ankyrin repeat domain 52a (ankrd52a), prey (domain or fragment, UniProt Q502K3 230-510)
chain: AEIDEPNAFGNTALHVACYTGQEAVANELVNRGANVNQPNHRGYTPLHLAAVSTNGALCLELLVNNGADVNMQSKEGKSPLHMAAIHGRFTRSQILIQNGGEIDCVDRYGNTPLHVAAKYGHELLISTLMTNGADTARQGIHGMFPLHLAVLYGSSDCCRKLLSSGQLYSIVLSMSKEHVLSAGFDINTPDNFGRTCLHAAASGGNIECLNLLLSSGADMNKKDKFGRTPLHYAAANGRYQCVVVLVGAGAEVNERDRSGCTPLHYSAASTAFCRTDRPHA
B2: rapunzel (rpz), prey (domain or fragment, UniProt F1QUP1 47-227)
chain: VVLHHVDDEDLQKLKREFGSVNRALDEISQQNRQALLQIRKETVDRQYHEVEENIRHQFRKFMEIMEAKPEHLQRKKEDFVESFINDKDDQNMYTLYDGVMGKRKLFSQPILDVYMKHSQGDHRVMENLCTRLAYLFCIGFIALMGYYGILGDDLESRNEEWEENMRNVQEKMQEVLRSCK
B3: …: Danio rerio similar to limb expression 1 (lix1), prey (domain or fragment, UniProt A2BF97 1-267)
chain: MSGADSDDDRAFKDLNVVGMLHKFWEQKQAAGVMMEIENLVVYESIPSPSPPFICYVTLPGGSCFGNFKHCYSKAEARRDAARVALMNSTFNELPCRRITPEFISHSVKEAVSTTSGNIADASDPSTSIGAYCLMLELNTGKTMLEFQEIMTVFQLLHWNGTLKAFRDMRCSRQEVIQYYSQQRLDERTRSHMALDWLQKELQSPGLLSQELQLAVKELGEARRTGRELRFYKEKKEILSLALSHADAEDLEEEMSWREATEFDCFE
B4: Fih-1 (full length), Myc-tagged (protein, UniProt P59723 1-344)
chain: MAETDGAAAFTELRDPDWDESQLRQYTFPTRQIPRLSHTDPRAEVLINNEEPVVLTDTSLVYPALKWDIPYLQENIGNGDFSVYIAENHKFLYYDEKKMVNFQDFVPKSRRIEMKFSEFVDKMHQTEEQGGKGRVYLQQTLNDTVGRKIVVDFLGFNWNWINKQQAKRNWGPLTSNLLLIGMEGNVTPAHYDEQQNFFAQIKGHKRCILFPPDQFDCLYPYPVHHPCDRQSQVDFENPDYDKFPNFKNAVGYEAVVGPGDVLYIPMYWWHHIESLLNGGETITVNFWYKGAPTPKRIEYPLKAHQKVAIMRNIEKMLGEALGDPHEVGPLLNMMIKGRYDHGLS
B5: Usp1 C (349-772 aa), Myc-tagged (domain or fragment, UniProt A0A8M1PE43 349-772)
chain: SIFSKFRSMGRITSHVGAKGETKEKSDCSSQEKQDKDNSENENKTHEVKQDLGKNEEQSGLDVLKWMFQGQLVLRTRCLECECFTERREDFQDISVPVQEDETLSSDSSSEISPDPKTELKTLKWAISQFASVERIVGQDKYFCETCHHYTEAERSLLFDKTPEVITIHLKCFAANGSEMDPYAGLSKVNTPLQTPLKLSLHEWCTQPDSPDYELFAVVMHSGVTISSGHYTTYIRMMDLHHTNIKPQTQDEEHDRDQEEDMKQKKEETSQTDYDDGEVSFSLSGRGRNVARTSGTNNMSSKTAGKRCSEGVGLLGGQRSITSYELSNSKQNNPDKPSSLSSRALLQNAVKKEPEEDCADAVADGTQVSFDLALRNLLDFEGKWMLFDDSEVRLYEEEDFLRACSPETCSTSTPYLLFYKRVSQ
B6: Trabid C (295-716 aa), Myc-tagged (domain or fragment, UniProt A0JMQ9 295-716)
chain: SGGDIARQLTADEVRILNRPSAFDAGFTLVHLAIRFQRQDMLAVLLTEVSQQTAKCIPALVCPELTEQIRREVAAALHRRKGEFPCYFFTDLVTFTLPADIEDLPPNVQEKLFDEVLDRDVQKELEEESPIINWSLELGTRLDSRLYALWNRTAGDCLLDSVLQATWGIYDKDSVLRKSLNDSLHDCSHWFYTRWKEWESWYSQSFGLHFSLREEQWQEDWAFILSLASQPGASLEQTHVFVLAHILRRPIIVYGVKYYKSFRGETLGYTRFQGVYLPLLWEQSFCWKSPIALGYTRGHFSALVAMENDGYDNRGAGANLNTDDDVTVTFLPLVDSERKLLHIHFLSAQEMGTEEQQERMLRQWMDCCVTEGGVLVAMQKSSRRRNHPLVTQMVEKWLDGYRQLAACPTLSDGEEEEEDEDE

The binders below were run against T1, Mib2-C-RF12 (781-999 aa) (zebrafish) (UniProt A0AR23) (assay: two-hybrid; first screen (Hybrigenics): LexA DNA-binding domain-bait and Gal4 activation domain-prey, HIS3 reporter, in the nucleus; random-primed Danio rerio embryo (18-20 hpf) cDNA library).
T1 sequence: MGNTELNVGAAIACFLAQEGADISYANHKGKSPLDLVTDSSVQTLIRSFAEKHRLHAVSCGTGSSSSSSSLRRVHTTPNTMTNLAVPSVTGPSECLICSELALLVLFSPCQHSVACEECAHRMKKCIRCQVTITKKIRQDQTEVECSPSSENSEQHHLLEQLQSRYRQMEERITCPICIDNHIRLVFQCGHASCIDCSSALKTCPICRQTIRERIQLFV
With B1 the binding was “binds”. With B2 the binding was “binds”. With B3 the binding was “binds”.

Each binder was assayed against T2, FLAG-tagged Mind bomb 2 (Mib2) (zebrafish) (UniProt A0AR23) (assay: co-IP; COS7 cells co-transfected with FLAG-tagged Mib/Mib2 and Myc- or HA-tagged partner; lysate in IONIC buffer (50 mM Tris HCl pH 7.4, 150 mM NaCl, 1% Triton X-100); anti-FLAG M2 affinity gel 2 h at 4°C; blot with anti-Myc or anti-HA).
T2 sequence: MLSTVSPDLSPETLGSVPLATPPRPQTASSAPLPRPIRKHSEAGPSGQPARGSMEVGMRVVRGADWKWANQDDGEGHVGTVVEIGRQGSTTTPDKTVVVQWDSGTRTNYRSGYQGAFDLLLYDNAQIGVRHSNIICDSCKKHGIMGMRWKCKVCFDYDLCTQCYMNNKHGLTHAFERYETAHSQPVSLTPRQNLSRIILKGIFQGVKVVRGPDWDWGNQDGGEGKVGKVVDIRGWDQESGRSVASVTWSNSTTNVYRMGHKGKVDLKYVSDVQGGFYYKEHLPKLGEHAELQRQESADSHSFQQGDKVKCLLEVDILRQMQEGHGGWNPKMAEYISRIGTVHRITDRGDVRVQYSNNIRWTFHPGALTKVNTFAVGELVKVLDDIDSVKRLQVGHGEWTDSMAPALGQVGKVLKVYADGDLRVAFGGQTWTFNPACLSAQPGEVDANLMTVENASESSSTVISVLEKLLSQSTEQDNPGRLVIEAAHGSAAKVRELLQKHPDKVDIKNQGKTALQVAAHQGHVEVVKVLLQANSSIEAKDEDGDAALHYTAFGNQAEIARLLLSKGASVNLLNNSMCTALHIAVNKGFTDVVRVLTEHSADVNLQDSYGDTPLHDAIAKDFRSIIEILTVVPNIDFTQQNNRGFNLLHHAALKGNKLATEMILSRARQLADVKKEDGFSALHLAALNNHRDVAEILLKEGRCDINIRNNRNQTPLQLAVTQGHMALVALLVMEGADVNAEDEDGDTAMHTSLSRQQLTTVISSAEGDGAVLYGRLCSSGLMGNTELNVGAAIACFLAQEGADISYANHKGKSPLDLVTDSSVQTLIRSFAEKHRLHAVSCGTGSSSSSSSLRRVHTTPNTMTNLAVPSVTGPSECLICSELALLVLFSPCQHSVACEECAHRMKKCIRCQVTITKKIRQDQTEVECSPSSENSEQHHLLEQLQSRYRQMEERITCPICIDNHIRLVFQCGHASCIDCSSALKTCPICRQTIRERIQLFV
For B4, the binding was “binds”. For B5, the binding was “binds”. For B6, the binding was “binds”.
